Results: US20090197853A1, “METHODS AND COMPOSITIONS OF TREATING CANCER” (priority 2005, published 2009)

Tested on: Ramos cells
Experiment: Gene expression profiling on Human Genome U133 Plus 2.0 Arrays, Ramos cultures
Type: cell-based
Protocol: Methods: Gene Expression Profiling—MGd (10 μM), Zn(OAc)2 (25 or 50 μM, the combinations, or control (5% mannitol) solution were added to Ramos cultures. Each treatment was performed in triplicate. After 4 hours of incubation, all cultures were washed twice with 0.5% BSA in HBSS and total RNA was isolated and subjected to analysis on Human Genome U133 Plus 2.0 Arrays (Affymetrix, Santa Clara, Calif.). Microarray Suite version 5.0 software (Affymetrix) was used to generate raw gene expression scores and normalize the relative hybridization signal from each experiment. All gene expression scores were set to a minimum value of fifty in order to minimize noise associated with less robust measurements of rare transcripts. Both the parametric Student's t-test and the permutation-based significance analysis of microarrays (SAM) were used to determine genes differentially expressed in treatment versus control groups.

| SMILES | Number of down-regulated transcripts (Ramos, 10 μM MGd, 4 hours) | Share of MGd-changed transcripts also changed by 50 μM zinc acetate (≧1.5-fold in the same direction, p≦0.005) | Number of significantly changed transcripts (Ramos, 25 μM zinc acetate, 4 hours) | Number of down-regulated transcripts (Ramos, 50 μM zinc acetate) | Number of up-regulated transcripts (Ramos, 50 μM zinc acetate) | Number of significantly changed transcripts (Ramos, 50 μM zinc acetate, 4 hours) |
| --- | --- | --- | --- | --- | --- | --- |
| CC(=O)[O-].CC(=O)[O-].CCc1c(CC)c2cc3nc(cnc4cc(OCCOCCOCCOC)c(OCCOCCOCCOC)cc4ncc4nc(cc1[n-]2)C(CCCO)=C4C)C(C)=C3CCCO.O.[Gd+3] [MGd, Motexafin gadolinium] | six | 41% |  |  |  |  |
| CC(=O)[O-].CC(=O)[O-].[Zn+2] [Zn(OAc)2, Zinc acetate] |  |  | 3 | 63 | 284 | 347 |
